From patent US5747235A, “Silver halide light sensitive emulsion layer having enhanced photographic sensitivity” (Eastman Kodak Company, priority 1996, dated 1998) come the findings set out here.

Molecules are shown by their SMILES.

This data set is described as follows: Example 5: photographic speed and fog, 365 nm exposure, fragmenting vs non-fragmenting one-electron donors, emulsion T-2. Particulars: Table V. As for the experimental part:
For photographic evaluation, each of the coating strips was exposed for 0.1 sec to a 365 nm emission line of a Hg lamp filtered through a Kodak Wratten filter number 18A and a step wedge ranging in density from 0 to 4 density units in 0.2 density steps. The exposed film strips were developed for 6 min in Kodak Rapid X-ray Developer (KRX). S365, relative sensitivity at 365 nm, was evaluated at a density of 0.2 units above fog.
An AgBrI tabular silver halide emulsion (Emulsion T-2) was prepared containing 4.05% total I distributed such that the central portion of the emulsion grains contained 1.5% I and the perimeter area contained substantially higher I, as described by Chang et. al., U.S. Pat. No. 5,314,793. […] This emulsion was precipitated using deionized gelatin. The emulsion was sulfur sensitized by adding 8.5×10^-6 mole 1,3-dicarboxymethyl-1,3-dimethyl-2-thiourea /mole Ag at 40° C.; the temperature was then raised to 60° C. at a rate of 5° C./3 min and the emulsions held for 20 min before cooling to 40° C. The chemically sensitized emulsion was then used to prepare coatings containing the fragmentable two-electron donor compounds. […] Where present, the blue sensitizing dye D-I or the red sensitizing dye D-II were added from methanol solution to the emulsion at 40° C. after the chemical sensitization and disulfocatechol addition. […]

Regarding `CCSCCN(CCSCC)c1ccc(CC(=O)O)cc1` [Compound S-17, Sodium 2-(4-N,N-bis(ethylthioethyl)aminophenyl)acetate], the “Reactivity of XY+.” value was “fragments”.
Then `CCSCCNC(=O)CCN(CC)c1ccc(CC(=O)O)cc1` [Compound S-18], with “fragments”.
